Laboratory results taken from the supplement of paper PMC7661543.
± gives the standard deviation of the averaged measurements. Differences between knockout arms are mostly noise.

Test system: HCC-38
Assay: relative cell number vs DMSO control (72 h) (% of DMSO); higher = less growth inhibition (more cells)
Experimental: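 QMAP-Seq: a pool of 5 breast cancer cell lines (ZR-75-1, SKBR3, HCC-38, MDA-MB-231, BT-20), each carrying 12 doxycycline-inducible Cas9 sgRNA perturbations (11 knockouts plus non-targeting sgNT), was treated with compounds for 72 h at four 10-fold doses (10 nM-10 uM or 1 nM-1 uM range). Barcodes were amplified and sequenced, and cell number was interpolated from 293T spike-in standard curves. The result is expressed as % of the median of DMSO wells. Two biological replicates.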

COc1cc(C(=O)N2CCC(N3CCN(C)CC3)CC2)ccc1Nc1ncc2c(n1)N(C)c1ccccc1C(=O)N2C [LRRK2IN1]
Conditions | relative cell number
sgRNA knockout: sgATF3, 10 nM | 119 ± 7.2
sgRNA knockout: sgATF3, 100 nM | 80.65 ± 0.64
sgRNA knockout: sgATF3, 1000 nM | 62.07 ± 0.21
sgRNA knockout: sgATF3, 10000 nM | 38.2 ± 2
sgRNA knockout: sgATF4, 10 nM | 102.4 ± 0.64
sgRNA knockout: sgATF4, 100 nM | 81.2 ± 1.7
sgRNA knockout: sgATF4, 1000 nM | 67.6 ± 5.6
sgRNA knockout: sgATF4, 10000 nM | 42.8 ± 5.8
sgRNA knockout: sgATF6, 10 nM | 105 ± 21
sgRNA knockout: sgATF6, 100 nM | 81.8 ± 1.1
sgRNA knockout: sgATF6, 1000 nM | 77.2 ± 1.3
sgRNA knockout: sgATF6, 10000 nM | 37 ± 3
sgRNA knockout: sgATG7, 10 nM | 105 ± 8.7
sgRNA knockout: sgATG7, 100 nM | 85.6 ± 5.8
sgRNA knockout: sgATG7, 1000 nM | 64.1 ± 3.5
sgRNA knockout: sgATG7, 10000 nM | 39.7 ± 5.7
sgRNA knockout: sgERN1, 10 nM | 114.8 ± 0.98
sgRNA knockout: sgERN1, 100 nM | 94.3 ± 3
sgRNA knockout: sgERN1, 1000 nM | 58.7 ± 0.87
sgRNA knockout: sgERN1, 10000 nM | 38.3 ± 3
sgRNA knockout: sgHSF1, 10 nM | 114 ± 8.7
sgRNA knockout: sgHSF1, 100 nM | 93.7 ± 9.5
sgRNA knockout: sgHSF1, 1000 nM | 74.7 ± 9.1
sgRNA knockout: sgHSF1, 10000 nM | 39.3 ± 0.91
sgRNA knockout: sgHSF2, 10 nM | 125 ± 22
sgRNA knockout: sgHSF2, 100 nM | 92.43 ± 0.82
sgRNA knockout: sgHSF2, 1000 nM | 66.6 ± 9.7
sgRNA knockout: sgHSF2, 10000 nM | 37.19 ± 0.07
sgRNA knockout: sgKEAP1, 10 nM | 123 ± 21
sgRNA knockout: sgKEAP1, 100 nM | 114 ± 15
sgRNA knockout: sgKEAP1, 1000 nM | 66.5 ± 7
sgRNA knockout: sgKEAP1, 10000 nM | 30.8 ± 1.2
sgRNA knockout: sgNFE2L2, 10 nM | 108 ± 2.7
sgRNA knockout: sgNFE2L2, 100 nM | 83.5 ± 3.3
sgRNA knockout: sgNFE2L2, 1000 nM | 60.3 ± 5.5
sgRNA knockout: sgNFE2L2, 10000 nM | 45.86 ± 0.27
sgRNA knockout: sgSLC35F2, 10 nM | 112 ± 12
sgRNA knockout: sgSLC35F2, 100 nM | 83.8 ± 12
sgRNA knockout: sgSLC35F2, 1000 nM | 58.69 ± 0.041
sgRNA knockout: sgSLC35F2, 10000 nM | 42.6 ± 2.3
sgRNA knockout: sgXBP1, 10 nM | 109 ± 3.8
sgRNA knockout: sgXBP1, 100 nM | 80.86 ± 0.3
sgRNA knockout: sgXBP1, 1000 nM | 63.4 ± 2.2
sgRNA knockout: sgXBP1, 10000 nM | 40.4 ± 0.7

C[C@@]1(C(=O)Nc2ccc(F)nc2)CCCN1c1nc(Nc2cc(C3CC3)n[nH]2)c2cccn2n1
Conditions | relative cell number
sgRNA knockout: sgATF3, 10 nM | 90.3 ± 3.3
sgRNA knockout: sgATF3, 100 nM | 83.3 ± 7.3
sgRNA knockout: sgATF3, 1000 nM | 89.2 ± 3.5
sgRNA knockout: sgATF3, 10000 nM | 43 ± 12
sgRNA knockout: sgATF4, 10 nM | 83.3 ± 14
sgRNA knockout: sgATF4, 100 nM | 80.6 ± 12
sgRNA knockout: sgATF4, 1000 nM | 87.8 ± 12
sgRNA knockout: sgATF4, 10000 nM | 44.1 ± 2.3
sgRNA knockout: sgATF6, 10 nM | 100 ± 4.9
sgRNA knockout: sgATF6, 100 nM | 90 ± 13
sgRNA knockout: sgATF6, 1000 nM | 81.9 ± 3.3
sgRNA knockout: sgATF6, 10000 nM | 41.3 ± 7.1
sgRNA knockout: sgATG7, 10 nM | 86.8 ± 13
sgRNA knockout: sgATG7, 100 nM | 88.7 ± 16
sgRNA knockout: sgATG7, 1000 nM | 81.9 ± 5.5
sgRNA knockout: sgATG7, 10000 nM | 46.3 ± 0.84
sgRNA knockout: sgERN1, 10 nM | 84 ± 5.3
sgRNA knockout: sgERN1, 100 nM | 94.7 ± 21
sgRNA knockout: sgERN1, 1000 nM | 87.8 ± 7.3
sgRNA knockout: sgERN1, 10000 nM | 43.02 ± 0.4
sgRNA knockout: sgHSF1, 10 nM | 96.5 ± 1.5
sgRNA knockout: sgHSF1, 100 nM | 91 ± 19
sgRNA knockout: sgHSF1, 1000 nM | 104 ± 1.8
sgRNA knockout: sgHSF1, 10000 nM | 41.2 ± 3.1
sgRNA knockout: sgHSF2, 10 nM | 87.4 ± 1.9
sgRNA knockout: sgHSF2, 100 nM | 84.7 ± 14
sgRNA knockout: sgHSF2, 1000 nM | 95.3 ± 3.1
sgRNA knockout: sgHSF2, 10000 nM | 44.6 ± 2.2
sgRNA knockout: sgKEAP1, 10 nM | 86.9 ± 15
sgRNA knockout: sgKEAP1, 100 nM | 89.9 ± 15
sgRNA knockout: sgKEAP1, 1000 nM | 84.8 ± 9.4
sgRNA knockout: sgKEAP1, 10000 nM | 43.5 ± 3.6
sgRNA knockout: sgNFE2L2, 10 nM | 82.8 ± 8.7
sgRNA knockout: sgNFE2L2, 100 nM | 82.7 ± 11
sgRNA knockout: sgNFE2L2, 1000 nM | 81.7 ± 10
sgRNA knockout: sgNFE2L2, 10000 nM | 41.9 ± 3.3
sgRNA knockout: sgSLC35F2, 10 nM | 88.64 ± 0.58
sgRNA knockout: sgSLC35F2, 100 nM | 81.1 ± 5.4
sgRNA knockout: sgSLC35F2, 1000 nM | 80.1 ± 6.6
sgRNA knockout: sgSLC35F2, 10000 nM | 48.6 ± 0.9
sgRNA knockout: sgXBP1, 10 nM | 84.3 ± 11
sgRNA knockout: sgXBP1, 100 nM | 85.7 ± 23
sgRNA knockout: sgXBP1, 1000 nM | 83.2 ± 7.6
sgRNA knockout: sgXBP1, 10000 nM | 45.8 ± 2.9

C=C1C[C@@H]2[C@H](CC[C@]3(C)C(=O)CC[C@@H]23)[C@@]2(C)C=CC(=O)C=C12 [Exemestane]
Conditions | relative cell number
sgRNA knockout: sgATF3, 10 nM | 91.7 ± 14
sgRNA knockout: sgATF3, 100 nM | 94.2 ± 12
sgRNA knockout: sgATF3, 1000 nM | 103 ± 8.3
sgRNA knockout: sgATF3, 10000 nM | 112 ± 19
sgRNA knockout: sgATF4, 10 nM | 106 ± 38
sgRNA knockout: sgATF4, 100 nM | 84.9 ± 18
sgRNA knockout: sgATF4, 1000 nM | 107 ± 2.3
sgRNA knockout: sgATF4, 10000 nM | 108 ± 34
sgRNA knockout: sgATF6, 10 nM | 116 ± 15
sgRNA knockout: sgATF6, 100 nM | 98.8 ± 30
sgRNA knockout: sgATF6, 1000 nM | 116.6 ± 0.84
sgRNA knockout: sgATF6, 10000 nM | 112 ± 13
sgRNA knockout: sgATG7, 10 nM | 103 ± 32
sgRNA knockout: sgATG7, 100 nM | 87.6 ± 18
sgRNA knockout: sgATG7, 1000 nM | 112 ± 12
sgRNA knockout: sgATG7, 10000 nM | 114 ± 16
sgRNA knockout: sgERN1, 10 nM | 109 ± 28
sgRNA knockout: sgERN1, 100 nM | 94 ± 25
sgRNA knockout: sgERN1, 1000 nM | 119 ± 23
sgRNA knockout: sgERN1, 10000 nM | 116 ± 23
sgRNA knockout: sgHSF1, 10 nM | 110 ± 20
sgRNA knockout: sgHSF1, 100 nM | 87.6 ± 11
sgRNA knockout: sgHSF1, 1000 nM | 132 ± 2.7
sgRNA knockout: sgHSF1, 10000 nM | 115 ± 3.6
sgRNA knockout: sgHSF2, 10 nM | 111 ± 22
sgRNA knockout: sgHSF2, 100 nM | 104 ± 29
sgRNA knockout: sgHSF2, 1000 nM | 120 ± 12
sgRNA knockout: sgHSF2, 10000 nM | 127 ± 17
sgRNA knockout: sgKEAP1, 10 nM | 118 ± 8.1
sgRNA knockout: sgKEAP1, 100 nM | 88.3 ± 17
sgRNA knockout: sgKEAP1, 1000 nM | 116 ± 32
sgRNA knockout: sgKEAP1, 10000 nM | 116 ± 27
sgRNA knockout: sgNFE2L2, 10 nM | 96.6 ± 34
sgRNA knockout: sgNFE2L2, 100 nM | 87.7 ± 23
sgRNA knockout: sgNFE2L2, 1000 nM | 108 ± 4.9
sgRNA knockout: sgNFE2L2, 10000 nM | 102 ± 33
sgRNA knockout: sgSLC35F2, 10 nM | 96.9 ± 26
sgRNA knockout: sgSLC35F2, 100 nM | 94.3 ± 10
sgRNA knockout: sgSLC35F2, 1000 nM | 116 ± 7.4
sgRNA knockout: sgSLC35F2, 10000 nM | 113 ± 21
sgRNA knockout: sgXBP1, 10 nM | 105 ± 31
sgRNA knockout: sgXBP1, 100 nM | 89 ± 21
sgRNA knockout: sgXBP1, 1000 nM | 119 ± 6.4
sgRNA knockout: sgXBP1, 10000 nM | 104 ± 25
